Data published in the supplement of paper PMC10849652.
The other results are listed elsewhere or left out.

Chains of the proteins cited; added tags and fusions are not shown. Lines headed by an entry give the natural chain unless they say otherwise; changes in a name come on top.
UniProt Q13630: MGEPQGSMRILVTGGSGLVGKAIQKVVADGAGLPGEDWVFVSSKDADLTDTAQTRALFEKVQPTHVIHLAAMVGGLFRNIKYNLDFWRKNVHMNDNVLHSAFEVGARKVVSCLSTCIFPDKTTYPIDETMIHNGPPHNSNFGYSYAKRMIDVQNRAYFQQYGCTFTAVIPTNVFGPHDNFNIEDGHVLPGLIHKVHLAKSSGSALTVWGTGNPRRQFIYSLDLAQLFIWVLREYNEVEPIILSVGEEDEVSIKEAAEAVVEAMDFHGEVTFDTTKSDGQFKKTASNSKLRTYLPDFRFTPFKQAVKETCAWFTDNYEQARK
UniProt Q86SZ2: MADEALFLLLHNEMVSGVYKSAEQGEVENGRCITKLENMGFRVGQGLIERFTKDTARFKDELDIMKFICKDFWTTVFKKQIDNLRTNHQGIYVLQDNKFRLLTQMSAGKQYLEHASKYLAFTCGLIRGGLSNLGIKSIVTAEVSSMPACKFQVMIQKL
UniProt Q2NL82: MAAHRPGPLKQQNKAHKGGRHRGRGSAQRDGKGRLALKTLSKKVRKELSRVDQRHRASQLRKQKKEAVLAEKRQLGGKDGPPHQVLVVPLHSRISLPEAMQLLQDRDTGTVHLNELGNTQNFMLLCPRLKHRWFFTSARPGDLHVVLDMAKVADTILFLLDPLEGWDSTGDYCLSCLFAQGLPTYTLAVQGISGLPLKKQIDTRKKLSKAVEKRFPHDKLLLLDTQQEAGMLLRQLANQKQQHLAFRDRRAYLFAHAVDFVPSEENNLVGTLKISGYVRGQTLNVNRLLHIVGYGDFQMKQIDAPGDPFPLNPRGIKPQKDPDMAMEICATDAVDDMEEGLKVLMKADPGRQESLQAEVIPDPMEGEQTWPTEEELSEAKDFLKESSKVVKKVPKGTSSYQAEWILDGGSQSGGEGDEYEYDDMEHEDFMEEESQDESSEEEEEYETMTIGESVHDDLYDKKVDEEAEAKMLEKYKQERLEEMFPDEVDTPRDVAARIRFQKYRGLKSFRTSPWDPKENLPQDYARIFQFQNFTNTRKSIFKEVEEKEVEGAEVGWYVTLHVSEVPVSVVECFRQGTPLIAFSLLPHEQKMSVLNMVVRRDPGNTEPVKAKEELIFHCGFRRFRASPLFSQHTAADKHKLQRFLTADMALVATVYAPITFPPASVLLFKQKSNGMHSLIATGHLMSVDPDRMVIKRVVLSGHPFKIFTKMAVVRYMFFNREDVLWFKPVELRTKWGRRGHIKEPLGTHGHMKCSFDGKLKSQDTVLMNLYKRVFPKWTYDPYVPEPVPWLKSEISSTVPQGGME
UniProt Q15645: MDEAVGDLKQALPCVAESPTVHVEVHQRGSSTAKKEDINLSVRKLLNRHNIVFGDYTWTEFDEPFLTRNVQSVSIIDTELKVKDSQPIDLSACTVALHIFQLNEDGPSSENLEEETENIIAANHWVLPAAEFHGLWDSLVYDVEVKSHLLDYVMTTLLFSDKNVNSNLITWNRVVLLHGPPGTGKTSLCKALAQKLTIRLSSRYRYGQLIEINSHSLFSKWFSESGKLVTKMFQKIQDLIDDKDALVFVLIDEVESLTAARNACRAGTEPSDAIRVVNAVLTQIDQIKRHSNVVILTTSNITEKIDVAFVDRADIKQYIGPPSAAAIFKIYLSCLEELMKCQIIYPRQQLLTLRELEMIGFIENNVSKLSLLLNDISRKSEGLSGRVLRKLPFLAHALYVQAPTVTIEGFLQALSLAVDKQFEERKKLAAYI
UniProt Q13263: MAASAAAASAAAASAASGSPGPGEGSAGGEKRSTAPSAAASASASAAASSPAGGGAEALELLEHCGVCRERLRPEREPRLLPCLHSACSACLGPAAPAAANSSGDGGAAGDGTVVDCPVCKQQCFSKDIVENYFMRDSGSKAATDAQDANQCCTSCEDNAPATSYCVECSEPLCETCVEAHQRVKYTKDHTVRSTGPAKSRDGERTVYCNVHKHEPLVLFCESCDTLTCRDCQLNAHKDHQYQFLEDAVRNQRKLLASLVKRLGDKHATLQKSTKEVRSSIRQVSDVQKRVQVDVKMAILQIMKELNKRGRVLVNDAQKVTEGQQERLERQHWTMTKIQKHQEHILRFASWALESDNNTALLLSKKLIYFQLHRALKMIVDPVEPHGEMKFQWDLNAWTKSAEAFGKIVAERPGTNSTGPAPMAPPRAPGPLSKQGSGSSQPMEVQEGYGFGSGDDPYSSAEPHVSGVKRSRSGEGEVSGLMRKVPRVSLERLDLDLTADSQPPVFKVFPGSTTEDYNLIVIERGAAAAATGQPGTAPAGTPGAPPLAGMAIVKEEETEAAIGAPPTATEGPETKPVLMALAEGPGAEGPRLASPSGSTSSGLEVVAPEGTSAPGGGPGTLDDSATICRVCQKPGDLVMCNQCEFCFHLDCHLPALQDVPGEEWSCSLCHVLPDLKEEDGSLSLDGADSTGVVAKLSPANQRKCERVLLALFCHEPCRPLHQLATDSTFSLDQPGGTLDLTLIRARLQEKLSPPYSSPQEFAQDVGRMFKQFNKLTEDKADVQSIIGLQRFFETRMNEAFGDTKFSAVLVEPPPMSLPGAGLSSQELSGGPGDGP
UniProt Q9Y2L5: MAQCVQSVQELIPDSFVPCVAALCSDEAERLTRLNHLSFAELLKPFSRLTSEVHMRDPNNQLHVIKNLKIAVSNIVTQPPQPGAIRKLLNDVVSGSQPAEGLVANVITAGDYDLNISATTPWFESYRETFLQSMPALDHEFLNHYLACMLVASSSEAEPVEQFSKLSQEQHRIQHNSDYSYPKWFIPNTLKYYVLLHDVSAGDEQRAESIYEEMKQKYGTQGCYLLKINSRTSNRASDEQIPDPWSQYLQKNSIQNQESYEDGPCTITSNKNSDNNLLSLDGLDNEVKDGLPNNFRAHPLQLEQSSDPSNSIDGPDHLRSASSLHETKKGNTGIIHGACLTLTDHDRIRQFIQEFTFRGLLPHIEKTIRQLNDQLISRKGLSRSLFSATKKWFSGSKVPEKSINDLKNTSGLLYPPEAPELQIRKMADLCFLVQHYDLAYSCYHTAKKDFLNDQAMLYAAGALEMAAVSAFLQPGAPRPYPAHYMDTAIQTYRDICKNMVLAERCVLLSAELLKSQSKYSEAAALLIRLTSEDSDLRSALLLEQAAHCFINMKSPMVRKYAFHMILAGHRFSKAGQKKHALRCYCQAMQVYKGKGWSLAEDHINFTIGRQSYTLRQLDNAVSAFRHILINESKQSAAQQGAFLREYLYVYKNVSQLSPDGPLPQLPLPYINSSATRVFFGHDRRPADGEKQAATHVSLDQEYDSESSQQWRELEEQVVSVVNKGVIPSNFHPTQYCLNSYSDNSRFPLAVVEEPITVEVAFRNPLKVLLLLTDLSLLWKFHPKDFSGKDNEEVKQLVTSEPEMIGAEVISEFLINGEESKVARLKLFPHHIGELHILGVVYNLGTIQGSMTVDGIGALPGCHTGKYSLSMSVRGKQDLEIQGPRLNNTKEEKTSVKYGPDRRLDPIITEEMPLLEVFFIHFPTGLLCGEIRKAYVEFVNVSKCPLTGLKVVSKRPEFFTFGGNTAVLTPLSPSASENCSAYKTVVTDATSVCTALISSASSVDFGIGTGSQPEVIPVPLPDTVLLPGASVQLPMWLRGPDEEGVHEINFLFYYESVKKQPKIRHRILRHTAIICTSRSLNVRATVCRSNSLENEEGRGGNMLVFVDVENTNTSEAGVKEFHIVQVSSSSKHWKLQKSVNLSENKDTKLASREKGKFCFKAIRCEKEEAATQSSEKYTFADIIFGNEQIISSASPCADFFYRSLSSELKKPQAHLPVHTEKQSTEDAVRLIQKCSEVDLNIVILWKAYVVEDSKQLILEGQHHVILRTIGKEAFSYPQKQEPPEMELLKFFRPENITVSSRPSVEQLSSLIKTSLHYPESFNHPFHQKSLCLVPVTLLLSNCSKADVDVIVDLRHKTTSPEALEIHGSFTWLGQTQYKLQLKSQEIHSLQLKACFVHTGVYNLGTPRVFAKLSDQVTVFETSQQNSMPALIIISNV
UniProt O00635: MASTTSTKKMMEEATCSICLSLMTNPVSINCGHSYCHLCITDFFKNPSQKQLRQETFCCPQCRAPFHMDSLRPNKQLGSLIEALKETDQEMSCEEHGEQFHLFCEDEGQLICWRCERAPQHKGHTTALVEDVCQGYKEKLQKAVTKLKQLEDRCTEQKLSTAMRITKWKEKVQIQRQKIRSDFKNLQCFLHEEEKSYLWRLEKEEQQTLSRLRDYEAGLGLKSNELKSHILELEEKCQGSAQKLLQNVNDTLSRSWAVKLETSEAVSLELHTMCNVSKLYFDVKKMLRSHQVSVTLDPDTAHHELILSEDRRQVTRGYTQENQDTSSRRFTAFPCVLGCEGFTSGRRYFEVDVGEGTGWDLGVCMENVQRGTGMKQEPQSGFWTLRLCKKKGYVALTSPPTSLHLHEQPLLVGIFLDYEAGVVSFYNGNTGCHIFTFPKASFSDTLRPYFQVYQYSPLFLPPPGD
UniProt Q99614: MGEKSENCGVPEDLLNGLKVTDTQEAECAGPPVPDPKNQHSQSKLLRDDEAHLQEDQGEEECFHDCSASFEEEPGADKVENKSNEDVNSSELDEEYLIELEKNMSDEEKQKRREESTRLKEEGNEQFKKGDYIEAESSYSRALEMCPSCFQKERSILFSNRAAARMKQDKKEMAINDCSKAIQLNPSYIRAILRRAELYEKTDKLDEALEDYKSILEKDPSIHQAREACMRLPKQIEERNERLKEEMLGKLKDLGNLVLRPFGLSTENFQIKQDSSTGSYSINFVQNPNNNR
UniProt Q86TV6: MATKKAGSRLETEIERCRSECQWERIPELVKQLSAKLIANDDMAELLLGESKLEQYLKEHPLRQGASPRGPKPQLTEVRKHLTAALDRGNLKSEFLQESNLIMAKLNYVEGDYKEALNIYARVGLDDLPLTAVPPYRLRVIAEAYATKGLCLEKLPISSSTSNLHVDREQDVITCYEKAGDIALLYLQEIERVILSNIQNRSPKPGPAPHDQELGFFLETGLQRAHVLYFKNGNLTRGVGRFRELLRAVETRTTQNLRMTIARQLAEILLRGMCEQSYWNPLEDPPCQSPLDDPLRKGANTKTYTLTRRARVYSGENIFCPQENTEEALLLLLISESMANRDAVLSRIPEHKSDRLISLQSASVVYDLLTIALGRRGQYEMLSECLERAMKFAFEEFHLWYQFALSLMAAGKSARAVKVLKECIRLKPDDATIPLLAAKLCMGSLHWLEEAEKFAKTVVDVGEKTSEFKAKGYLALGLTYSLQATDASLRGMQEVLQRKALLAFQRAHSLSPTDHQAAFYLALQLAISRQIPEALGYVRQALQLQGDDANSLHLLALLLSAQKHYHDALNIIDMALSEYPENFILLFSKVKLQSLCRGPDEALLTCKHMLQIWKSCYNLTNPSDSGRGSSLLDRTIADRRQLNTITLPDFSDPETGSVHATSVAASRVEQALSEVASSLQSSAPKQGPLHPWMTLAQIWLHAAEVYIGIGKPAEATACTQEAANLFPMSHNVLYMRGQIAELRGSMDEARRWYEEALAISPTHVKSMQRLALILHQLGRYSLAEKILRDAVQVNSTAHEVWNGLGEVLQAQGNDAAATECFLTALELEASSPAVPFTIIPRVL
UniProt Q32P41: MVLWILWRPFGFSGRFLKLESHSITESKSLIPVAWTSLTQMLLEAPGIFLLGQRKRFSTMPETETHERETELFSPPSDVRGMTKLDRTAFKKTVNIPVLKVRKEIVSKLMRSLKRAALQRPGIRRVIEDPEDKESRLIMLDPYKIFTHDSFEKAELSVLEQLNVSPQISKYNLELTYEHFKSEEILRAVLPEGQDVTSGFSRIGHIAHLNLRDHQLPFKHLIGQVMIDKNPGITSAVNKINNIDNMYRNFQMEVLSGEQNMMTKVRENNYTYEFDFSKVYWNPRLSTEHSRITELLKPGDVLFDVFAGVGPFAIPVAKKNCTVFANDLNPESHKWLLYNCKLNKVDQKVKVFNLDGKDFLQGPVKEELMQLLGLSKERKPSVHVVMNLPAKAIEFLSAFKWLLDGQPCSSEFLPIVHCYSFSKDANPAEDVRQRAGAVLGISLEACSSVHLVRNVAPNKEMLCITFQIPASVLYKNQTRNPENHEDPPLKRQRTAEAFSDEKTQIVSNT
UniProt Q9BUZ4: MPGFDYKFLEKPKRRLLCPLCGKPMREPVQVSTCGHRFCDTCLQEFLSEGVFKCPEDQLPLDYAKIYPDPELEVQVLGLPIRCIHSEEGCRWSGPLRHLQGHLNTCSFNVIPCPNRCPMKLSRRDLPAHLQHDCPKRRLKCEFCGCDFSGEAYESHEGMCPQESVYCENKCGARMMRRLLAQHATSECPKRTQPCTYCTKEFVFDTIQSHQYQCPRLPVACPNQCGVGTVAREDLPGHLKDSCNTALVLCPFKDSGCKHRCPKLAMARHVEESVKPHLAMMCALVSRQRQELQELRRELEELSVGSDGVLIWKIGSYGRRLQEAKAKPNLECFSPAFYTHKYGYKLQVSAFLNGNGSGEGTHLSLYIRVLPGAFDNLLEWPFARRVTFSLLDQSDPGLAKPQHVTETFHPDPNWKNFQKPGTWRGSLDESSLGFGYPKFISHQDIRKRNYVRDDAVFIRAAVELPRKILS

How the values were obtained:
Test in all cases: log2 fold change, soluble protein after heating vs DMSO (PISA); higher = thermal stabilisation; K562 lysate, 10 uM; active = over 0.2 and 3.5 SD of the protein, either way, in both replicates (recomputed)
[1] = compound: CN1CC[C@H](c2c(O)cc(O)c3c(=O)cc(-c4ccccc4Cl)oc23)[C@H](O)C1 [alvocidib]
How it was run: (§1)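 A 30 min treatment with 10 μM compound was applied to crude K562 extract at 1 mg/mL protein in PBS pH 7.4 with 1 mM MgCl2. Heating for 3 min spanned 48°C-58°C, after which aliquots were pooled, adjusted to 0.5% NP-40 at 4°C and spun at 21,000xg for 90 min. TMTpro 16plex LC-MS/MS of the supernatant, with channel sums equalised, gave values recorded as log-two fold change in thermal stability against solvent controls, from duplicates.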

[2] = compound: CN1CCc2c(c3ccccc3n2Cc2ccc(C(=O)NO)cc2)C1 [Tubastatin A]
How it was run: as §1

[3] = compound: CNC(=O)C1=CC=CC=C1NC2=NC(=NC=C2Cl)NC3=C(C=C(C=C3)N4CCOCC4)OC
How it was run: as §1

[4] = compound: CNC(=O)c1ccc(Nc2ncc(C(F)(F)F)c(NCc3nccnc3N(C)S(C)(=O)=O)n2)cc1 [defactinib]
How it was run: as §1

[5] = compound: CNc1nc(-c2ccc3c(N)n[nH]c3c2)cc(N2C[C@@H](C(=O)NC3CCCCC3)CC[C@H]2C)n1
How it was run: as §1

[6] = compound: COC(=O)N[C@@H](C)CNc1nccc(-c2cn(C(C)C)nc2-c2cc(Cl)cc(NS(C)(=O)=O)c2F)n1 [encorafenib]
How it was run: as §1

[7] = compound: COC(=O)[C@H](CCSC)NC(=O)C1=C(C=C(C=C1)NC[C@H](CS)N)C2=CC=CC=C2
How it was run: as §1

[8] = compound: COc1cc(Nc2ncc3c(n2)-c2ccc(Cl)cc2C(c2c(F)cccc2OC)=NC3)ccc1C(=O)O [alisertib]
How it was run: as §1

[9] = compound: COc1cc2nc(-c3cc(F)ccc3O)nc(N[C@@H]3CNC[C@H]3C(C)(C)O)c2cc1OC
How it was run: as §1

[10] = compound: COc1cc2ncnc(Nc3ccc(F)c(Cl)c3)c2cc1OCCCN1CCOCC1 [gefitinib]
How it was run: as §1

[11] = compound: CS(=O)(=O)CCNCc1ccc(-c2ccc3ncnc(Nc4ccc(OCc5cccc(F)c5)c(Cl)c4)c3c2)o1 [lapatinib]
How it was run: as §1

[12] = compound: CS(=O)(=O)N1CCN(Cc2cc3nc(-c4cccc5[nH]ncc45)nc(N4CCOCC4)c3s2)CC1 [pictilisib]
How it was run: as §1

[13] = compound: C[C@@H](Oc1cc(-c2cnn(C3CCNCC3)c2)cnc1N)c1c(Cl)ccc(F)c1Cl [crizotinib]
How it was run: as §1

[14] = compound: C[C@H](C1=CC=C(C=C1)C(=O)NC2=C3C=CNC3=NC=C2)N
How it was run: as §1

[15] = compound: C[C@H](Nc1ncnc2nc[nH]c12)c1cc2cccc(Cl)c2c(=O)n1-c1ccccc1 [duvelisib]
How it was run: as §1

[16] = compound: Cc1cc(Nc2cc(CN3CCOCC3)c3nc(C)c(Cc4ccc(Cl)cc4F)n3n2)n[nH]1 [gandotinib]
How it was run: as §1

[17] = compound: Cc1cc(Nc2cc(N3CCN(C)CC3)nc(Sc3ccc(NC(=O)C4CC4)cc3)n2)n[nH]1 [tozasertib]
How it was run: as §1

[18] = compound: Cc1ccc(-n2nc(C(C)(C)C)cc2NC(=O)Nc2ccc(OCCN3CCOCC3)c3ccccc23)cc1 [doramapimod]
How it was run: as §1

[19] = compound: Cc1ccc(NC(=O)c2ccc(CN3CC[C@H](N(C)C)C3)c(C(F)(F)F)c2)cc1Nc1nccc(-c2cncnc2)n1 [bafetinib]
How it was run: as §1

[20] = compound: Cc1cccc(CC(=O)N2CCc3c2ccc(-c2cn(C)c4ncnc(N)c24)c3F)n1
How it was run: as §1

Measured: log2 fold change

TSTA3 (UniProt Q13630)
inactive: [1] -0.009 | [2] 0.046 | [3] -0.01 | [4] -0.001 | [5] 0.047 | [6] -0.029 | [7] 0.167 | [8] 0.014 | [9] 0.008 | [10] 0.012 | [11] 0.001 | [12] -0.007 | [13] 0.073 | [14] -0.004 | [15] -0.006 | [16] 0 | [17] -0.003 | [18] -0.031 | [19] -0.051 | [20] -0.021

TRAPPC6B (UniProt Q86SZ2)
inactive: [1] -0.002 | [2] 0 | [3] 0.019 | [4] -0.02 | [5] -0.002 | [6] -0.025 | [7] 0.025 | [8] 0.027 | [9] 0.002 | [10] -0.046 | [11] 0.008 | [12] 0.037 | [13] 0.047 | [14] -0.028 | [15] -0.001 | [16] 0.001 | [17] -0.006 | [18] -0.042 | [19] -0.092 | [20] 0.074

TSR1 (UniProt Q2NL82)
inactive: [1] 0.044 | [2] -0.077 | [3] 0.018 | [4] 0.034 | [5] -0.02 | [6] 0.015 | [7] 0.121 | [8] -0.019 | [9] -0.003 | [10] -0.049 | [11] -0.009 | [12] -0.004 | [13] -0.032 | [14] 0.067 | [15] 0.015 | [16] -0.059 | [17] 0.003 | [18] -0.001 | [19] -0.046 | [20] -0.074

TRMT1 (UniProt Q9NXH9)
inactive: [1] -0.006 | [2] 0.001 | [3] 0.012 | [4] 0.012 | [5] -0.033 | [6] 0.019 | [7] -0.05 | [8] 0.022 | [9] -0.007 | [10] 0.019 | [11] -0.016 | [12] 0.008 | [13] -0.013 | [14] -0.043 | [15] 0.039 | [16] 0.036 | [17] 0.022 | [18] 0.02 | [19] -0.038 | [20] 0.011

TRIP13 (UniProt Q15645)
inactive: [1] 0.018 | [2] -0.159 | [3] 0.014 | [4] 0.07 | [5] -0.049 | [6] 0.03 | [7] 0.114 | [8] 0 | [9] 0.014 | [10] -0.036 | [11] -0.015 | [12] 0.014 | [13] -0.028 | [14] 0.039 | [15] -0.01 | [16] -0.187 | [17] 0.005 | [18] 0.026 | [19] -0.029 | [20] -0.045

TRIM28 (UniProt Q13263)
inactive: [1] 0.024 | [2] 0.016 | [3] 0 | [4] -0.007 | [5] -0.002 | [6] -0.011 | [7] 0.009 | [8] 0 | [9] 0.006 | [10] -0.01 | [11] -0.016 | [12] 0.008 | [13] 0.011 | [14] 0.008 | [15] -0.012 | [16] -0.006 | [17] -0.01 | [18] -0.008 | [19] 0.003 | [20] -0.017

TRAPPC8 (UniProt Q9Y2L5)
inactive: [1] 0.013 | [2] -0.093 | [3] 0.028 | [4] -0.001 | [5] 0.018 | [6] 0.002 | [7] 0.024 | [8] -0.012 | [9] 0.016 | [10] -0.047 | [11] -0.012 | [12] -0.022 | [13] -0.014 | [14] -0.002 | [15] -0.025 | [16] -0.011 | [17] -0.016 | [18] 0.031 | [19] -0.016 | [20] 0.006

2 neighbouring records already listed, for reference:
TSTA3 (UniProt Q13630)
inactive: [1] -0.009 | [2] 0.046 | [3] -0.01 | [4] -0.001 | [5] 0.047 | [6] -0.029 | [7] 0.167 | [8] 0.014 | [9] 0.008 | [10] 0.012 | [11] 0.001 | [12] -0.007 | [13] 0.073 | [14] -0.004 | [15] -0.006 | [16] 0 | [17] -0.003 | [18] -0.031 | [19] -0.051 | [20] -0.021

TRAPPC6B (UniProt Q86SZ2)
inactive: [1] -0.002 | [2] 0 | [3] 0.019 | [4] -0.02 | [5] -0.002 | [6] -0.025 | [7] 0.025 | [8] 0.027 | [9] 0.002 | [10] -0.046 | [11] 0.008 | [12] 0.037 | [13] 0.047 | [14] -0.028 | [15] -0.001 | [16] 0.001 | [17] -0.006 | [18] -0.042 | [19] -0.092 | [20] 0.074

The list goes on:

TRIM32 (UniProt Q13049)
inactive: [1] -0.018 | [2] 0.01 | [3] -0.034 | [4] 0.03 | [5] -0.02 | [6] 0.15 | [7] -0.125 | [8] 0.017 | [9] -0.012 | [10] 0.006 | [11] -0.057 | [12] -0.04 | [13] 0.005 | [14] 0 | [15] 0.042 | [16] -0.046 | [17] 0.021 | [18] -0.084 | [19] -0.035 | [20] 0.104

TRIM38 (UniProt O00635)
inactive: [1] 0.013 | [2] -0.167 | [3] 0.056 | [4] -0.026 | [5] -0.029 | [6] 0.074 | [7] 0.071 | [8] -0.107 | [9] 0.019 | [10] 0.008 | [11] 0.04 | [12] 0.01 | [13] -0.049 | [14] -0.066 | [15] -0.077 | [16] -0.027 | [17] -0.105 | [18] 0.034 | [19] -0.04 | [20] 0.06

TRIP11 (UniProt Q15643)
inactive: [1] -0.074 | [2] 0.017 | [3] 0.048 | [4] 0.025 | [5] 0.005 | [6] 0.103 | [7] -0.087 | [8] 0.034 | [9] -0.017 | [10] -0.014 | [11] -0.003 | [12] 0.086 | [13] -0.008 | [14] -0.052 | [15] -0.017 | [16] 0.083 | [17] -0.037 | [18] 0.059 | [19] -0.088 | [20] 0.109

TTC1 (UniProt Q99614)
inactive: [1] 0.025 | [2] 0.053 | [3] 0.017 | [4] -0.012 | [5] -0.01 | [6] 0.009 | [7] -0.105 | [8] -0.01 | [9] -0.019 | [10] -0.011 | [11] 0.051 | [12] 0.007 | [13] 0.088 | [14] -0.033 | [15] 0.014 | [16] 0.072 | [17] -0.011 | [18] -0.004 | [19] 0.028 | [20] -0.007

TSEN54 (UniProt Q7Z6J9)
inactive: [1] -0.052 | [2] -0.155 | [3] 0.001 | [4] -0.026 | [5] -0.029 | [6] 0.01 | [7] 0.138 | [8] -0.02 | [9] 0.02 | [10] -0.266 | [11] 0.008 | [12] -0.064 | [13] -0.135 | [14] 0.03 | [15] -0.03 | [16] 0.031 | [17] -0.011 | [18] 0.016 | [19] -0.008 | [20] 0.086

TTC7B isoform 2 (UniProt Q86TV6)
inactive: [1] 0.061 | [2] -0.162 | [3] 0.1 | [4] 0.04 | [5] 0.076 | [6] 0.041 | [7] -0.04 | [8] 0.012 | [9] 0 | [10] -0.087 | [11] -0.039 | [12] 0.02 | [13] 0.014 | [14] 0.042 | [15] 0.092 | [16] -0.012 | [17] 0.037 | [18] 0.009 | [19] -0.051 | [20] 0

TRAPPC5 (UniProt Q8IUR0)
inactive: [1] 0.021 | [2] -0.115 | [3] -0.027 | [4] 0.051 | [5] -0.047 | [6] 0.002 | [7] -0.018 | [8] 0.023 | [9] 0.028 | [10] 0.021 | [11] -0.03 | [12] 0.013 | [13] 0.014 | [14] -0.001 | [15] 0.049 | [16] -0.108 | [17] -0.027 | [18] 0.023 | [19] -0.078 | [20] 0.038

TRMT5 (UniProt Q32P41)
inactive: [1] 0.019 | [2] -0.176 | [3] 0.027 | [4] -0.049 | [5] -0.046 | [6] -0.003 | [7] 0.216 | [8] 0.035 | [9] 0.009 | [10] -0.022 | [11] -0.003 | [12] -0.043 | [13] -0.079 | [14] -0.002 | [15] 0.003 | [16] -0.038 | [17] 0.018 | [18] 0.041 | [19] 0.01 | [20] 0.042

TRAF4 (UniProt Q9BUZ4)
inactive: [1] 0.151 | [2] 0 | [3] 0.049 | [4] 0.201 | [5] 0.053 | [6] -0.029 | [7] -0.047 | [8] -0.007 | [9] 0.154 | [10] -0.054 | [11] -0.142 | [12] -0.016 | [13] -0.086 | [14] 0.028 | [15] -0.057 | [16] -0.274 | [17] -0.164 | [18] -0.016 | [19] -0.229 | [20] -0.134
